{"source": "patent US20260116932", "test_system": "T1, ZFP45723-KRAB (ZFP-TF) (synthetic construct)", "T1 sequence": "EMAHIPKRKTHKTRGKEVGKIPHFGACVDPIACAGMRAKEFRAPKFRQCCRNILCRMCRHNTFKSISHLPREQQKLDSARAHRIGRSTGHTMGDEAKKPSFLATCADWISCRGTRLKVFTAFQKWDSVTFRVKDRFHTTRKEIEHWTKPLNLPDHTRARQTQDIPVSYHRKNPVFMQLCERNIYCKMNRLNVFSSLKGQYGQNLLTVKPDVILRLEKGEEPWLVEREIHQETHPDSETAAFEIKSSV", "assay": "activity in cells", "conditions": "mutant HTT mRNA repression by AAV in HD iPSC-derived cortical neurons (allele-specific RT-qPCR); direct binding not measured; protein in cells; only the site is given", "note": "Tags and fusion partners may be left off the protein sequences shown.", "data": [{"sequence": "AGCAGCAGCAGCAGCAGCAGCAGCAGCA (double strand) [HTT CAG repeat target site (45723)]", "values": [{"measurement": "activity on this sequence", "result": "active"}]}]}
